From patent US20080039328A1, “Post Harvest Control of Genetically Modified Crop Growth Employing D-Amino Acid Compounds” (BASF PLANT SCIENCE GMBH, priority 2004, published 2008)
Some results were stated once for a whole list of compounds, not compound by compound.

Tested on: dao1 transgenic A. thaliana
Test: Growth of dao1 (DAAO) transgenic A. thaliana on medium with D-amino acids
Type: in vivo, Arabidopsis thaliana
Details: seeds sown on medium
Description: FIG. 4 D-amino acid dose responses of dao1 transgenic and wild-type A. thaliana. (a-d) Growth of dao1 transgenic line 3:7 (white), 10:7 (light gray), 13:4 (gray) and wild-type (black) plants, in fresh weight per plant, on media containing various concentrations of D-serine, D-alanine, D-isoleucine and D-valine in half-strength MS with 0.5% (wt/vol) sucrose and 0.8% (wt/vol) agar. Different concentration ranges were used for different ID-amino acids. The plants were grown for 10 d after germination under 16 h photoperiods at 24° C.; n=10±s.e.m., except for plants grown on D-isoleucine, where smaller Petri dishes were used, (n=6±s.e.m.).
T1 seeds of transgenic Arabidopsis plants were surface-sterilized and sown in Petri plates that were sealed with gas-permeable tape. The growth medium was half strength MS19 with 0.5% (wt/vol) sucrose and 0.8% (wt/vol) agar, plus 3 mM D-alanine, 3 mM D-serine or 50 μg/ml kanamycin as the selective agent. Plants were grown for 5 d after germination with a 16 h photoperiod at 24° C. To evaluate the selection efficiency on different substrates, 2,074, 1,914 and 1,810 T1 seeds were sown on D-alanine-, D-serine- and kanamycin-selective plates, respectively, and the number of surviving seedlings was counted (44, 32 and 43, respectively). […]

SMILES | Concentration at which unambiguous counter-selection was achieved (FIG. 4 c,d)
CC(C)[C@@H](N)C(=O)O [D-valine] | greater than 10 mM
CC[C@@H](C)[C@@H](N)C(=O)O [D-isoleucine] | greater than 10 mM
